Results reported in patent US20160151519A1 (JOHN HOPKINS UNIVERSITY, published 2016).
No constants are given. Whether binding was seen depends on the method and setting. Some entries that bind do so weakly or less than the wild type. For part of these data: Where a sequence is shown, tags or fusion partners need not be part of it.

Chains of the proteins cited; added tags and fusions are not shown. Residues count along the entry.
UniProt P06731, residues 35-685: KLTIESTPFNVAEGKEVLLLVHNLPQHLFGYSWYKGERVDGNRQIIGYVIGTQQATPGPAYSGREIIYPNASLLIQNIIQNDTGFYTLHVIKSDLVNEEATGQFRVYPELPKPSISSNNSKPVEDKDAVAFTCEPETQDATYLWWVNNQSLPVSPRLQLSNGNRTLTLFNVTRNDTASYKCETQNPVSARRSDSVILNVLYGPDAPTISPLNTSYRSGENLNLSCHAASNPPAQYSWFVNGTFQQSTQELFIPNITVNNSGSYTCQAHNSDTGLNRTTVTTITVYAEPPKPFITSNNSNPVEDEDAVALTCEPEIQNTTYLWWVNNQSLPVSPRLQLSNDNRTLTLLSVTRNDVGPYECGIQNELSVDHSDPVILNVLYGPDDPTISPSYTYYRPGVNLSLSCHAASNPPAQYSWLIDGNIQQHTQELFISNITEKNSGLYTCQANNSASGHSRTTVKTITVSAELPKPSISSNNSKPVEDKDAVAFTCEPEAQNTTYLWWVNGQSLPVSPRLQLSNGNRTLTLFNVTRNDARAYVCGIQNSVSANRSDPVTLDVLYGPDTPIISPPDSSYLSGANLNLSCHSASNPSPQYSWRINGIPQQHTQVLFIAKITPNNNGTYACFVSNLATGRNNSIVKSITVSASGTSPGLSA

Tests used:
[1] = target: T1, E-selectin-IgG Fc chimera (human) (UniProt P16581); test: cell-free flow-based adhesion assay, CEA-coated microspheres over selectin substrates
T1 sequence (looked up): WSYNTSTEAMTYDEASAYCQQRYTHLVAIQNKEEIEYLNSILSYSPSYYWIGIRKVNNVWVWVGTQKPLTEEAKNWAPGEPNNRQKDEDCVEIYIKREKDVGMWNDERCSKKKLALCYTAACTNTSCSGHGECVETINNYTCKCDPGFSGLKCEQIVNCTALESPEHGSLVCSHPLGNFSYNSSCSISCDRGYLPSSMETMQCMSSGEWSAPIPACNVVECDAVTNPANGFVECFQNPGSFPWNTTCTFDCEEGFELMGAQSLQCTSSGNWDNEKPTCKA

[2] = target: T1, E-selectin-IgG Fc chimera (human); test: cell-free flow-based adhesion assay; difference attributed to slower average rolling velocities of the CD44-knockdown CEA microspheres
[3] = target: T2, E-selectin on CHO cells stably transfected with cDNA encoding full-length E-selectin (CHO-E) (UniProt P16581); test: blot rolling assay with CHO-E cells at 0.5 dyn/cm2
T2 sequence (looked up): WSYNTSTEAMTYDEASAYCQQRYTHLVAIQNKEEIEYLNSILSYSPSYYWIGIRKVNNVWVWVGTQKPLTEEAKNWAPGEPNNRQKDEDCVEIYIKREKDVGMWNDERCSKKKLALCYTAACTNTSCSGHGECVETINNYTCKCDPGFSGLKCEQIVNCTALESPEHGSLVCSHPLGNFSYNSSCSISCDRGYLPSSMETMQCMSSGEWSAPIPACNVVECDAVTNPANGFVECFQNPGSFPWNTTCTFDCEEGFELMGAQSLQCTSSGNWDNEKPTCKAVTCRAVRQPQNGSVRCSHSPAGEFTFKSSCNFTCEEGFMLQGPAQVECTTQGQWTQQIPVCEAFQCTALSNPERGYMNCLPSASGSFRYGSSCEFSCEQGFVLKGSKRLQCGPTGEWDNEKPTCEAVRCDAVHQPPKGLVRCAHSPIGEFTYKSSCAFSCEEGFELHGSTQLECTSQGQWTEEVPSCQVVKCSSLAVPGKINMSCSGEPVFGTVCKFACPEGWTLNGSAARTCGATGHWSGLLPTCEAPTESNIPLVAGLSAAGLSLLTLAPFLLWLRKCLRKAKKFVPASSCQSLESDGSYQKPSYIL

Measured: binding

carcinoembryonic antigen (CEA) immunopurified from LS174T colon carcinoma cell lysate (from UniProt P06731 35-685) (ligand)
binds: all assays above
